PubChem BioAssay AID686938 – Drosophila RNAi Screening Center | 2013

Assay: 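Looking for CRAC channel components and the factors controlling them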 (primary screen)
Cells: Drosophila S2R+ cells
Reagent: long dsRNA against Drosophila genes, about 0.25 µg dsRNA per well, roughly 10,000 cells
Timing: 5 days of knock-down before the calcium assay
Treatment: thapsigargin (SERCA pump blocker) to empty calcium stores; entry signal taken 4 min after adding it
Read-out: 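Duplicate raw fluo-4 intensities per well from a plate reader, at rest and four minutes after thapsigargin emptied calcium stores; entry-to-rest ratio filled for only some wells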
Direction: calcium entry signal: higher = stronger calcium signal after store depletion; entry to resting ratio: higher = more calcium entry relative to resting level; resting calcium signal: higher = higher resting calcium signal
Units: calcium entry signal in fluorescence units; resting calcium signal in fluorescence units
Rule for the call: 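Called when the plate z-score of the entry-to-rest ratio, mean of duplicates, falls below −3; wells with low overall dye signal (Fmax z below −2) or more than five off-targets excluded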
Meaning of the calls: active = strongly reduced calcium entry; inactive = no strong reduction
The screen tested about 23,000 reagents; shown is an unselected part of those that have a named target and a result. Of all reagents, 75 (0.33%) are marked active. 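Raw plate signals without normalisation; calls rest on plate z-scores that were not deposited; ratio present for only 364 wells.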 A number with no mark means an inactive call. Names joined by + are all predicted targets of the reagent. Not given: the dose of the treatment.

With CG31870 [DRSC21681], what was measured?
calcium entry signal, replicate 1: 3.90e7; calcium entry signal, replicate 2: 4.50e7; resting calcium signal, replicate 1: 2.17e7; resting calcium signal, replicate 2: 1.93e7

What did the screen give for CG14787 [DRSC18606]?
calcium entry signal, replicate 1: 5.57e7; calcium entry signal, replicate 2: 4.88e7; entry to resting ratio: 2.1; resting calcium signal, replicate 1: 2.70e7; resting calcium signal, replicate 2: 2.06e7

What is on record for slmo + CG34179 [DRSC03143]?
calcium entry signal, replicate 1: 4.86e7; resting calcium signal, replicate 1: 2.38e7

How did the screen score CR43670 + CR43671 + CR43669 [DRSC01554]?
calcium entry signal, replicate 1: 1.75e7; calcium entry signal, replicate 2: 3.47e7; resting calcium signal, replicate 1: 1.13e7; resting calcium signal, replicate 2: 1.51e7

With CR43670 + CR43671 + CR43669 [DRSC01556], what does the deposit list?
calcium entry signal, replicate 1: 3.33e7; calcium entry signal, replicate 2: 3.09e7; resting calcium signal, replicate 1: 1.76e7; resting calcium signal, replicate 2: 1.37e7

With Rip11 [DRSC20000], what does the deposit list?
calcium entry signal, replicate 1: 3.55e7; calcium entry signal, replicate 2: 3.29e7; resting calcium signal, replicate 1: 1.65e7; resting calcium signal, replicate 2: 1.49e7

For CG12498 [DRSC18635], what does the deposit list?
calcium entry signal, replicate 1: 3.28e7; calcium entry signal, replicate 2: 5.19e7; entry to resting ratio: 1.9; resting calcium signal, replicate 1: 1.77e7; resting calcium signal, replicate 2: 2.04e7

Quoted from above for reference:
CR43670 + CR43671 + CR43669 [DRSC01554] | calcium entry signal, replicate 1 = 1.75e7; calcium entry signal, replicate 2 = 3.47e7; resting calcium signal, replicate 1 = 1.13e7; resting calcium signal, replicate 2 = 1.51e7
CR43670 + CR43671 + CR43669 [DRSC01556] | calcium entry signal, replicate 1 = 3.33e7; calcium entry signal, replicate 2 = 3.09e7; resting calcium signal, replicate 1 = 1.76e7; resting calcium signal, replicate 2 = 1.37e7

Additional results:
Which result is listed for Grip75 [DRSC03337]?
calcium entry signal, replicate 1: 4.10e7; calcium entry signal, replicate 2: 4.07e7; resting calcium signal, replicate 1: 1.93e7; resting calcium signal, replicate 2: 1.93e7

With CG13223 [DRSC06344], what was measured?
calcium entry signal, replicate 1: 2.45e7; calcium entry signal, replicate 2: 3.24e7; resting calcium signal, replicate 1: 1.33e7; resting calcium signal, replicate 2: 1.41e7

With caup [DRSC11334], what does the deposit list?
calcium entry signal, replicate 1: 2.44e7; calcium entry signal, replicate 2: 2.38e7; resting calcium signal, replicate 1: 1.39e7; resting calcium signal, replicate 2: 1.18e7

With caup [DRSC23050], how do the results read?
calcium entry signal, replicate 1: 3.76e7; calcium entry signal, replicate 2: 4.31e7; resting calcium signal, replicate 1: 1.89e7; resting calcium signal, replicate 2: 1.96e7

Which result is listed for ndl [DRSC11374]?
calcium entry signal, replicate 1: 2.81e7; calcium entry signal, replicate 2: 4.32e7; resting calcium signal, replicate 1: 1.42e7; resting calcium signal, replicate 2: 1.98e7

What did the screen give for CG11123 [DRSC06040]?
calcium entry signal, replicate 1: 5.02e7; calcium entry signal, replicate 2: 4.62e7; resting calcium signal, replicate 1: 2.35e7; resting calcium signal, replicate 2: 1.93e7

With Iris [DRSC00663], what does the deposit list?
calcium entry signal, replicate 1: 4.52e7; resting calcium signal, replicate 1: 2.30e7

What is on record for CG13168 [DRSC06295]?
calcium entry signal, replicate 1: 2.93e7; calcium entry signal, replicate 2: 4.83e7; resting calcium signal, replicate 1: 1.38e7; resting calcium signal, replicate 2: 1.91e7

Which result is listed for mge [DRSC08721]?
calcium entry signal, replicate 1: 3.29e7; calcium entry signal, replicate 2: 2.77e7; resting calcium signal, replicate 1: 1.74e7; resting calcium signal, replicate 2: 1.32e7

How did the screen score CG30047 [DRSC05340]?
calcium entry signal, replicate 1: 4.32e7; calcium entry signal, replicate 2: 3.80e7; resting calcium signal, replicate 1: 2.03e7; resting calcium signal, replicate 2: 1.55e7

With CG10089 [DRSC09694], what does the deposit list?
calcium entry signal, replicate 1: 2.92e7; calcium entry signal, replicate 2: 3.76e7; resting calcium signal, replicate 1: 1.70e7; resting calcium signal, replicate 2: 1.69e7

With CG10089 [DRSC09695], what was measured?
calcium entry signal, replicate 1: 2.90e7; calcium entry signal, replicate 2: 3.37e7; resting calcium signal, replicate 1: 1.53e7; resting calcium signal, replicate 2: 1.37e7

With vanin-like [DRSC17440], how do the results read?
calcium entry signal, replicate 1: 2.98e7; calcium entry signal, replicate 2: 3.48e7; resting calcium signal, replicate 1: 1.49e7; resting calcium signal, replicate 2: 1.67e7

What is on record for CG17715 [DRSC11950]?
calcium entry signal, replicate 1: 2.49e7; calcium entry signal, replicate 2: 4.01e7; resting calcium signal, replicate 1: 1.22e7; resting calcium signal, replicate 2: 1.65e7
